Experimental data taken from the supplement of paper PMC10849652.
The list shows a part of the results.

By UniProt entry, the sequences of proteins in these tests, tags left out. Where a name states a change or a piece, a line headed by the entry shows the natural chain unless it says otherwise.
UniProt Q9H582: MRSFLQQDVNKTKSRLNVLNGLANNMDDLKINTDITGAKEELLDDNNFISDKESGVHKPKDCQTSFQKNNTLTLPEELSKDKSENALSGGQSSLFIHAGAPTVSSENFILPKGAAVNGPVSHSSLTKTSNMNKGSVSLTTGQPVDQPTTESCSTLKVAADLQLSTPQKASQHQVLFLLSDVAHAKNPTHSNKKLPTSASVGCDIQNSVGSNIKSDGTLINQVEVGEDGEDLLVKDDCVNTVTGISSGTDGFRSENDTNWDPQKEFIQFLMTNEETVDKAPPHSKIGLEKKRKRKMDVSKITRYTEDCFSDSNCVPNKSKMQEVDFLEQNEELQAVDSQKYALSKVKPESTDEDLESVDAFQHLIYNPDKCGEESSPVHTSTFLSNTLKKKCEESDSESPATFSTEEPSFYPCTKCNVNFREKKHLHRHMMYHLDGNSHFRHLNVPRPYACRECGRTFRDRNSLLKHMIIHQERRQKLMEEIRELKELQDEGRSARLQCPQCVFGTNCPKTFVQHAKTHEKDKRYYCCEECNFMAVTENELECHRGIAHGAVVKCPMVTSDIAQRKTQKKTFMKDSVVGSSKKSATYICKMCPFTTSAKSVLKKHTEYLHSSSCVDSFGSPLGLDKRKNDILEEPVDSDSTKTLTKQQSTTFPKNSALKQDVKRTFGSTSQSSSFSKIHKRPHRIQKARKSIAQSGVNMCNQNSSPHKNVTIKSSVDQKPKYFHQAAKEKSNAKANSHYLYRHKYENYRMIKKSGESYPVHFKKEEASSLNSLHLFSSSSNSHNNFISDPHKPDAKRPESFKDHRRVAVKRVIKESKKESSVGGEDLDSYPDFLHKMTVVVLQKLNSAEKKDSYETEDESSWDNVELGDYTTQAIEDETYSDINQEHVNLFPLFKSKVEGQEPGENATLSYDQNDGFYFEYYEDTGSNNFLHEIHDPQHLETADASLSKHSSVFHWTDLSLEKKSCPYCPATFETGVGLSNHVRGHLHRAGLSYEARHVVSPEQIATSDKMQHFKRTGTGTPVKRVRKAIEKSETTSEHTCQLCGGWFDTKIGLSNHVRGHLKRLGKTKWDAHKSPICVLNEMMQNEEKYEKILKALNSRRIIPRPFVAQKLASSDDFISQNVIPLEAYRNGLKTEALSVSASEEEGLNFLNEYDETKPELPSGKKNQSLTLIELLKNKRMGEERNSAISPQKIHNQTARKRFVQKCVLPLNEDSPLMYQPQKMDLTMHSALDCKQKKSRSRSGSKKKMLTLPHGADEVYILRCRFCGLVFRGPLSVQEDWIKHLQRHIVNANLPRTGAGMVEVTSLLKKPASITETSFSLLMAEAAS
UniProt Q499Z4: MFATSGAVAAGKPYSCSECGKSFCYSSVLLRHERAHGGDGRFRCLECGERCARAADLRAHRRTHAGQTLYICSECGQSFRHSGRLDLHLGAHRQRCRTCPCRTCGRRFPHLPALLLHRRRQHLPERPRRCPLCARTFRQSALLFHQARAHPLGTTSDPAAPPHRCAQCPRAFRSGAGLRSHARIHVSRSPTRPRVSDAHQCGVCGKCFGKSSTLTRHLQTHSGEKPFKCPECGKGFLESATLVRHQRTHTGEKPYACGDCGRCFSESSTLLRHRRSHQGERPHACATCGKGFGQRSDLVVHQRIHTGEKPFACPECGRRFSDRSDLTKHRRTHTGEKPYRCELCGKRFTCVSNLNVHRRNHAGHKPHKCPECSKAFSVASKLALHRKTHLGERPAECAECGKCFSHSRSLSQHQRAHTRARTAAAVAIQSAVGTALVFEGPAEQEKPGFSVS
UniProt Q5VV52: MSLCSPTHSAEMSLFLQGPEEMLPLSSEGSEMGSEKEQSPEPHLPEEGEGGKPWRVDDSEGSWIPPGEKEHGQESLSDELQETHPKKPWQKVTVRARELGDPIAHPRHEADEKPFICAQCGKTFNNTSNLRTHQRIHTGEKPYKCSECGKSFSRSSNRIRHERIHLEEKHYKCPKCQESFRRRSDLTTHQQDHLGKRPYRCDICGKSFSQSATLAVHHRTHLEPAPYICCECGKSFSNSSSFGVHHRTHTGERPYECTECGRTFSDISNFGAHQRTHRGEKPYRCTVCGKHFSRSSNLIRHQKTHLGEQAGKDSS
UniProt Q9Y5V0: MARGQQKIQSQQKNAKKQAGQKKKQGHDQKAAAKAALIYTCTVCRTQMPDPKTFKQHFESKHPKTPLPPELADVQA
UniProt Q16587: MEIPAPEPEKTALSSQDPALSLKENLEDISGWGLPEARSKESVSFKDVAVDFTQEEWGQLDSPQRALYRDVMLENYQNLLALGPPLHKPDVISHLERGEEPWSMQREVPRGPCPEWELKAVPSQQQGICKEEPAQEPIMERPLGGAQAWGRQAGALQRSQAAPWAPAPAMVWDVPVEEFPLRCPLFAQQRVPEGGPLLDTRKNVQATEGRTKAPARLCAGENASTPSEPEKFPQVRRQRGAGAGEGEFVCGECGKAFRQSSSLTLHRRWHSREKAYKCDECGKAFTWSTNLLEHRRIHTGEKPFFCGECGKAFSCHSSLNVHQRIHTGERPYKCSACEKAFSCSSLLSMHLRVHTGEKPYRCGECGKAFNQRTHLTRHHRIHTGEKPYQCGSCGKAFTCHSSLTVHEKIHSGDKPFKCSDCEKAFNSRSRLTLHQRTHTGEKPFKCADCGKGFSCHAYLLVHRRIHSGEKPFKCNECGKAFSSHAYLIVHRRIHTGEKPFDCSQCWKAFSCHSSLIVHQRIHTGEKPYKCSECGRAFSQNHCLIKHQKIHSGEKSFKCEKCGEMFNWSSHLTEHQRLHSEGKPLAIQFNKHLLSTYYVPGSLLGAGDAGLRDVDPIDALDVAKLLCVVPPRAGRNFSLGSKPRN
UniProt Q9H5H4: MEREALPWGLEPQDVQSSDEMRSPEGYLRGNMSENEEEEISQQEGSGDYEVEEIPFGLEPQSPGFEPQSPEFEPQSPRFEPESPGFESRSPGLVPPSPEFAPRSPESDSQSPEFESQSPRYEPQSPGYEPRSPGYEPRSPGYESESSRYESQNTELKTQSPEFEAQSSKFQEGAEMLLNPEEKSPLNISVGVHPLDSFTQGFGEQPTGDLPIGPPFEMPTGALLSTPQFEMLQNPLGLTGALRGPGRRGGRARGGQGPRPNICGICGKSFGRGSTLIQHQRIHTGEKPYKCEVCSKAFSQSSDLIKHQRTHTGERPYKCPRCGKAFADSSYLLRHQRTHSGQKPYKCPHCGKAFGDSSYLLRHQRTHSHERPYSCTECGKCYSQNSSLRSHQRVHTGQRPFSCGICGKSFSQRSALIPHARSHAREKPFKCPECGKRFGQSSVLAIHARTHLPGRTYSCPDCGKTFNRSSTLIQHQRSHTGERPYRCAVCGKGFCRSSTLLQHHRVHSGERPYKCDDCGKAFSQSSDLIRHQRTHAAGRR
UniProt Q8NDX6: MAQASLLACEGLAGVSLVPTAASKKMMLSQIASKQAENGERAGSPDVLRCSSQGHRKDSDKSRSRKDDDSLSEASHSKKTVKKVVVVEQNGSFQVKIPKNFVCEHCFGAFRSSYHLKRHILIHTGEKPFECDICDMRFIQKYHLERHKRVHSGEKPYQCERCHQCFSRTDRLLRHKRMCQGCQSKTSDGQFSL
UniProt Q96BR6: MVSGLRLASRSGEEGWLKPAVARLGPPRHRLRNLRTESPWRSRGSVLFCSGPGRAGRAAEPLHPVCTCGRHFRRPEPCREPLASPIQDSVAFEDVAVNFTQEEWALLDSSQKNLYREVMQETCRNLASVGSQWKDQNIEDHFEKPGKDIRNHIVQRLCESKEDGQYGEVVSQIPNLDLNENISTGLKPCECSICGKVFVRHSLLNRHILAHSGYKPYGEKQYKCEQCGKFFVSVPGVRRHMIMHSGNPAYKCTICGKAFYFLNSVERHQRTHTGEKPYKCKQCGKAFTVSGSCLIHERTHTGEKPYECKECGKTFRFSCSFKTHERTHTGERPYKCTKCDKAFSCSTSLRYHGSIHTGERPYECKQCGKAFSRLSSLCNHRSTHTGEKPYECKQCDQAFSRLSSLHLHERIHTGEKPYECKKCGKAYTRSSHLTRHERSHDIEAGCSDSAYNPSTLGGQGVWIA
UniProt P0C7X2: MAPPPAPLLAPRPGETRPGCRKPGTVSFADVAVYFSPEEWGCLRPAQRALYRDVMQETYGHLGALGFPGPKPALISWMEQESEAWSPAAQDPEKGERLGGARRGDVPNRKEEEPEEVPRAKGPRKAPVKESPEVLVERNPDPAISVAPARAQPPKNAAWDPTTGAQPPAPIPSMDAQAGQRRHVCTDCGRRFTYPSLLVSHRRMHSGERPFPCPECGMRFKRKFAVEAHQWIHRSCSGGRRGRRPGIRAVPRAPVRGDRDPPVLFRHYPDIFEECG
UniProt Q9H7X3: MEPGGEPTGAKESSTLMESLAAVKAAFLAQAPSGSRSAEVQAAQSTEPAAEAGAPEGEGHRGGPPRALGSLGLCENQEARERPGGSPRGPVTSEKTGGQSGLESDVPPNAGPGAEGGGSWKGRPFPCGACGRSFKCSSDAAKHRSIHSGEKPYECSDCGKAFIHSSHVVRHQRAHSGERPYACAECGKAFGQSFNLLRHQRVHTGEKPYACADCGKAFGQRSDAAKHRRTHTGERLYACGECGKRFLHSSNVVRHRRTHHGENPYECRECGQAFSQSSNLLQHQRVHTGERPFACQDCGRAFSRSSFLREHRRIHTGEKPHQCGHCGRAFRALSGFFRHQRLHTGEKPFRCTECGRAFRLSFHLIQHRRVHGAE

What was measured:
Assay in all cases: log2 fold change, soluble protein after heating vs DMSO (PISA); higher = thermal stabilisation; K562 cells, 10 uM, 30 min; active = over 0.2 and 3.5 SD of the protein, either way, in both replicates (recomputed)
ZNF644 = ZNF644 (UniProt Q9H582)
How it was run: (§1)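 Quantification of soluble protein used TMTpro 16plex LC-MS/MS, with channel sums equalised. Samples were the supernatant after 21,000xg for 90 min of pooled aliquots from K562 cells (2×10^6 cells/mL) treated with 10 μM compound for 30 min, heated for 3 min over 48°C-58°C, and extracted in PBS with 0.5% NP-40 at 4°C. Values, from duplicates, describe thermal stability against control samples on a log2 fold-change scale.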

ZNF672 = ZNF672 (UniProt Q499Z4)
How it was run: as §1

ZNF691 = ZNF691 (UniProt Q5VV52)
How it was run: as §1

ZNF706 = ZNF706 (UniProt Q9Y5V0)
How it was run: as §1

ZNF74 isoform 5 = ZNF74 isoform 5 (UniProt Q16587)
How it was run: as §1

ZNF768 = ZNF768 (UniProt Q9H5H4)
How it was run: as §1

ZNF740 = ZNF740 (UniProt Q8NDX6)
How it was run: as §1

ZNF669 = ZNF669 (UniProt Q96BR6)
How it was run: as §1

ZNF688 = ZNF688 (UniProt P0C7X2)
How it was run: as §1

ZNF696 = ZNF696 (UniProt Q9H7X3)
How it was run: as §1

Measured: log2 fold change

CC(C)N(C[C@H]1O[C@@H](n2cnc3c(N)ncnc32)[C@H](O)[C@@H]1O)[C@H]1C[C@@H](CCc2nc3cc(C(C)(C)C)ccc3[nH]2)C1 [pinometostat]
inactive: ZNF644 = 0.01 | ZNF672 = 0.169 | ZNF691 = 0.009 | ZNF706 = 0.017 | ZNF74 isoform 5 = 0.02 | ZNF768 = 0.192

CCCCN(Cc1ccc(C(=O)NO)cc1)C(=O)Nc1ccccc1 [Nexturastat A]
inactive: ZNF644 = 0.237 | ZNF691 = 0.153 | ZNF706 = 0.037 | ZNF74 isoform 5 = -0.09 | ZNF740 = 0.076 | ZNF768 = 0.091

CCCS(=O)(=O)Nc1ccc(F)c(C(=O)c2c[nH]c3ncc(-c4ccc(Cl)cc4)cc23)c1F [vemurafenib]
inactive: ZNF644 = 0.033 | ZNF672 = -0.001 | ZNF691 = -0.064 | ZNF706 = 0.006 | ZNF74 isoform 5 = 0.185 | ZNF740 = -0.063 | ZNF768 = -0.078

Cc1ccc(-n2nc(C(C)(C)C)cc2NC(=O)Nc2ccc(OCCN3CCOCC3)c3ccccc23)cc1 [doramapimod]
inactive: ZNF644 = -0.282 | ZNF672 = 0.196 | ZNF691 = -0.021 | ZNF706 = -0.007 | ZNF74 isoform 5 = 0.099 | ZNF768 = 0.107

O=C(Nc1nc2ccccc2n1CCN1CCOCC1)c1cccc([N+](=O)[O-])c1 [IRAK-1-4 Inhibitor I]
inactive: ZNF644 = 0.019 | ZNF672 = 0.106 | ZNF691 = 0.038 | ZNF706 = 0.035 | ZNF74 isoform 5 = -0.034 | ZNF768 = -0.063

CC(C)(O)CC(=O)NCCn1ccc2ncnc(Nc3ccc(Oc4cccc(C(F)(F)F)c4)c(Cl)c3)c21
inactive: ZNF644 = -0.133 | ZNF691 = 0.058 | ZNF706 = 0.009 | ZNF74 isoform 5 = -0.097 | ZNF740 = 0.06 | ZNF768 = 0.088

C/C(=N\NC(=O)c1cccc(S(=O)(=O)N2CCOCC2)c1)c1cc(Cl)ccc1O
inactive: ZNF669 = -0.06 | ZNF672 = 0.001 | ZNF691 = 0.073 | ZNF706 = -0.014 | ZNF740 = -0.212 | ZNF768 = -0.173

Cn1cncc1[C@@](N)(c1ccc(Cl)cc1)c1ccc2c(c1)c(-c1cccc(Cl)c1)cc(=O)n2C [tipifarnib]
inactive: ZNF669 = -0.055 | ZNF688 = -0.163 | ZNF691 = 0.057 | ZNF706 = 0.009 | ZNF74 isoform 5 = -0.425 | ZNF740 = 0.014 | ZNF768 = 0.173

O=C1c2ccccc2-c2n[nH]c3cccc1c23
inactive: ZNF669 = -0.065 | ZNF672 = -0.006 | ZNF691 = -0.135 | ZNF706 = -0.016 | ZNF740 = 0.228 | ZNF768 = -0.046

Cc1cccc(-c2[nH]c(C(C)(C)C)nc2-c2ccc3nccnc3c2)n1
inactive: ZNF644 = -0.452 | ZNF672 = 0.08 | ZNF691 = -0.053 | ZNF706 = -0.014 | ZNF74 isoform 5 = -0.019 | ZNF768 = -0.076

C[C@@H]1COCCN1c1cc(C2(S(C)(=O)=O)CC2)nc(-c2cccc3[nH]ccc23)n1
inactive: ZNF644 = 0.039 | ZNF691 = -0.069 | ZNF706 = -0.041 | ZNF74 isoform 5 = 0.355 | ZNF740 = 0 | ZNF768 = -0.382

NC(=O)c1cnc(N[C@@H]2CCCC[C@@H]2N)nc1Nc1cccc(-n2nccn2)c1
inactive: ZNF669 = 0.009 | ZNF672 = 0.172 | ZNF691 = -0.155 | ZNF706 = 0.05 | ZNF740 = -0.084 | ZNF768 = 0.064

CN(C)CC(=O)Nc1ccc2[nH]c(=O)c3ccccc3c2c1
inactive: ZNF644 = -0.119 | ZNF672 = -0.005 | ZNF691 = 0.027 | ZNF706 = -0.034 | ZNF74 isoform 5 = -0.035 | ZNF740 = -0.081 | ZNF768 = -0.185

CN1CCN(c2nc(C3=C(c4c[nH]c5ccccc45)C(=O)NC3=O)c3ccccc3n2)CC1 [sotrastaurin]
inactive: ZNF644 = -0.103 | ZNF672 = 0.025 | ZNF691 = 0.075 | ZNF696 = -0.361 | ZNF706 = 0.043 | ZNF74 isoform 5 = 0 | ZNF768 = -0.023

CON(C)C(=O)N1N=C(c2cc(F)ccc2F)S[C@@]1(CCCN)c1ccccc1 [filanesib]
inactive: ZNF644 = 0.015 | ZNF672 = -0.248 | ZNF691 = 0.073 | ZNF696 = 0.387 | ZNF706 = 0.02 | ZNF74 isoform 5 = -0.029 | ZNF768 = 0.294

Nc1ccccc1NC(=O)c1ccc(CNC(=O)OCc2cccnc2)cc1 [entinostat]
inactive: ZNF644 = -0.22 | ZNF672 = -0.03 | ZNF691 = -0.084 | ZNF696 = -0.022 | ZNF706 = -0.049 | ZNF74 isoform 5 = 0.202 | ZNF768 = -0.005

O=C1NC(=NCc2cccs2)S/C1=C\c1ccc2ncccc2c1
inactive: ZNF669 = 0.025 | ZNF672 = -0.137 | ZNF691 = -0.198 | ZNF706 = -0.014 | ZNF740 = -0.077 | ZNF768 = -0.085

CC(=O)c1cnc2ccc(-c3cc(Cl)c(O)c(Cl)c3)nc2c1N[C@H]1CC[C@H](CN(C)C)CC1
inactive: ZNF669 = -0.153 | ZNF672 = 0.147 | ZNF691 = -0.148 | ZNF706 = 0.032 | ZNF740 = 0.003 | ZNF768 = 0.097

CNC(=O)c1ccc(Nc2ncc(C(F)(F)F)c(NCc3nccnc3N(C)S(C)(=O)=O)n2)cc1 [defactinib]
inactive: ZNF644 = -0.044 | ZNF672 = 0.136 | ZNF691 = 0.036 | ZNF706 = 0.005 | ZNF74 isoform 5 = -0.27 | ZNF740 = -0.183 | ZNF768 = 0.26

COc1cc(C(=O)O)ccc1NC(=O)[C@@H]1N[C@@H](CC(C)(C)C)[C@](C#N)(c2ccc(Cl)cc2F)[C@H]1c1cccc(Cl)c1F [idasanutlin]
inactive: ZNF669 = 0.131 | ZNF672 = -0.072 | ZNF691 = 0.141 | ZNF706 = 0.068 | ZNF740 = 0.02 | ZNF768 = 0.162

NCC(=O)Nc1ccc(-n2nc(C(F)(F)F)cc2-c2ccc3c(ccc4ccccc43)c2)cc1
inactive: ZNF644 = 0.052 | ZNF672 = 0.114 | ZNF691 = 0.003 | ZNF706 = 0.017 | ZNF74 isoform 5 = -0.228 | ZNF740 = -0.137 | ZNF768 = 0.312

COC(=O)[C@H](CCSC)NC(=O)c1ccc(NC[C@@H](N)CS)cc1-c1ccccc1
inactive: ZNF644 = -0.067 | ZNF672 = -0.014 | ZNF691 = -0.054 | ZNF706 = 0.003 | ZNF74 isoform 5 = 0.095 | ZNF740 = 0.067 | ZNF768 = -0.011

NC(=O)Nc1cc(-c2cccc(F)c2)sc1C(=O)N[C@H]1CCCNC1
inactive: ZNF644 = -0.024 | ZNF672 = -0.016 | ZNF691 = 0.058 | ZNF696 = 0.097 | ZNF706 = -0.076 | ZNF74 isoform 5 = -0.051 | ZNF768 = 0.133

Three compounds from above, sorted by molar mass, high to low:
COc1cc(C(=O)O)ccc1NC(=O)[C@@H]1N[C@@H](CC(C)(C)C)[C@](C#N)(c2ccc(Cl)cc2F)[C@H]1c1cccc(Cl)c1F [idasanutlin]
inactive: ZNF669 = 0.131 | ZNF672 = -0.072 | ZNF691 = 0.141 | ZNF706 = 0.068 | ZNF740 = 0.02 | ZNF768 = 0.162

COC(=O)[C@H](CCSC)NC(=O)c1ccc(NC[C@@H](N)CS)cc1-c1ccccc1
inactive: ZNF644 = -0.067 | ZNF672 = -0.014 | ZNF691 = -0.054 | ZNF706 = 0.003 | ZNF74 isoform 5 = 0.095 | ZNF740 = 0.067 | ZNF768 = -0.011

NC(=O)Nc1cc(-c2cccc(F)c2)sc1C(=O)N[C@H]1CCCNC1
inactive: ZNF644 = -0.024 | ZNF672 = -0.016 | ZNF691 = 0.058 | ZNF696 = 0.097 | ZNF706 = -0.076 | ZNF74 isoform 5 = -0.051 | ZNF768 = 0.133

Carrying on.

C[C@@H](Oc1cc(-c2cnn(C3CCNCC3)c2)cnc1N)c1c(Cl)ccc(F)c1Cl [crizotinib]
inactive: ZNF644 = 0.149 | ZNF672 = -0.163 | ZNF691 = -0.046 | ZNF706 = 0.014 | ZNF74 isoform 5 = 0.155 | ZNF768 = 0.03

Cc1ccc(NC(=O)c2cccc(C(C)(C)C#N)c2)cc1Nc1ccc2ncn(C)c(=O)c2c1
inactive: ZNF644 = 0.215 | ZNF672 = 0.102 | ZNF691 = -0.041 | ZNF696 = -0.029 | ZNF706 = -0.011 | ZNF74 isoform 5 = 0.164 | ZNF768 = 0.008

CC[C@H](C)[C@H](NC(=O)[C@H]([C@@H](C)CC)N(C)C(C)=O)C(=O)N[C@H](C(=O)N[C@@H](CC(C)C)C(=O)[C@@]1(C)CO1)[C@@H](C)O [epoxomicin]
inactive: ZNF644 = -0.146 | ZNF691 = -0.002 | ZNF706 = 0.011 | ZNF74 isoform 5 = 0.091 | ZNF740 = 0.148 | ZNF768 = -0.233

Fc1ccc(Cl)cc1-c1nc(Nc2ccncc2)c2nccnc2n1
inactive: ZNF644 = -0.079 | ZNF691 = -0.03 | ZNF706 = 0.006 | ZNF74 isoform 5 = -0.147 | ZNF740 = -0.313 | ZNF768 = -0.395

O=C1NC(=O)C(c2cnc3ccccn23)=C1c1cn2c3c(cc(F)cc13)CN(C(=O)N1CCCCC1)CC2
inactive: ZNF644 = -0.225 | ZNF691 = 0.021 | ZNF706 = -0.056 | ZNF74 isoform 5 = 0.053 | ZNF740 = 0.066 | ZNF768 = 0.188

COc1ccc(Cn2ccc3ccc(C(=O)NO)cc32)cc1
inactive: ZNF644 = 0.203 | ZNF672 = -0.124 | ZNF691 = -0.009 | ZNF706 = -0.052 | ZNF74 isoform 5 = 0.024 | ZNF768 = -0.16

CS(=O)(=O)c1ccc(-c2cnc(N)c(C(=O)Nc3ccccc3)n2)cc1
inactive: ZNF644 = -0.026 | ZNF672 = -0.061 | ZNF691 = -0.008 | ZNF696 = 0.038 | ZNF706 = -0.014 | ZNF74 isoform 5 = -0.05 | ZNF768 = -0.166

CCCS(=O)(=O)Nc1ccc(F)c(C(=O)c2c[nH]c3ncc(Cl)cc23)c1F
inactive: ZNF669 = 0.08 | ZNF688 = -0.061 | ZNF691 = -0.018 | ZNF706 = -0.038 | ZNF74 isoform 5 = -0.093 | ZNF740 = 0.006 | ZNF768 = -0.132

COc1cc2nc(-c3cc(F)ccc3O)nc(N[C@@H]3CNC[C@H]3C(C)(C)O)c2cc1OC
inactive: ZNF669 = -0.237 | ZNF688 = 0.142 | ZNF691 = -0.025 | ZNF706 = 0.07 | ZNF74 isoform 5 = 0.191 | ZNF740 = -0.013 | ZNF768 = -0.073
